For test [1], the target named is β1-integrin subunit (human (endogenous in TIME cells)) (UniProt P05556). In words: proximity ligation; cell surface PLA (Duolink) in fixed TIME cells transfected with Halo-CD36; anti-β1-integrin K20 applied before permeabilization, anti-HaloTag after; TIRFM; read-out ratio of PLA detection density in CD36-expressing to non-expressing cells.
Test [2] has the same target. In words: proximity ligation; whole cell PLA (Duolink) in fixed, permeabilized TIME cells transfected with Halo-CD36; rabbit anti-HaloTag with mouse anti-β1-integrin K20 (total) or 12G10 (active); mitofilin antibody as negative control; spinning disk confocal; read-out percent of cell area occupied by PLA puncta.

Protein sequences, listed by entry. Tags and fused reporters are not part of them.
UniProt P05556: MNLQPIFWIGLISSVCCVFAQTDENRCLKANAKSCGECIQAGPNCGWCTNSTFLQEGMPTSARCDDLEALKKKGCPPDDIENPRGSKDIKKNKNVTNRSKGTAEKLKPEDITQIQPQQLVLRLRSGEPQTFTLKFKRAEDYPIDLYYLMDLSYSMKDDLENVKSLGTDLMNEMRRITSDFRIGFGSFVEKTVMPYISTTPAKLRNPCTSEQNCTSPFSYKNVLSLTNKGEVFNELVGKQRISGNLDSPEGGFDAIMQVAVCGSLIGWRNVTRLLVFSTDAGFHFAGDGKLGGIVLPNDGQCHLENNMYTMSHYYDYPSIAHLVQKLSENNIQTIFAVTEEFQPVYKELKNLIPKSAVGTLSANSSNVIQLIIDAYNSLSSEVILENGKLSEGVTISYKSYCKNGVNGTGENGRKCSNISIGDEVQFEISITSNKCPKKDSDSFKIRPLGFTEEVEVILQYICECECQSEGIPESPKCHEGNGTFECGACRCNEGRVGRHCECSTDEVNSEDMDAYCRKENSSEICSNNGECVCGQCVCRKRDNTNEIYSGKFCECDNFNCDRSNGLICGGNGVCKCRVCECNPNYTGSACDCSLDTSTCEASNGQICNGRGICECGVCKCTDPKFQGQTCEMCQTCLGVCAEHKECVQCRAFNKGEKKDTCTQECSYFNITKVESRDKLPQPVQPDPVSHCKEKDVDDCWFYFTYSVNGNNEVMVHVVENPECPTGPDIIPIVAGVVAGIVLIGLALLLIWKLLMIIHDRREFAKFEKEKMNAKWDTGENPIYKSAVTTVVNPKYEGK
UniProt P16671: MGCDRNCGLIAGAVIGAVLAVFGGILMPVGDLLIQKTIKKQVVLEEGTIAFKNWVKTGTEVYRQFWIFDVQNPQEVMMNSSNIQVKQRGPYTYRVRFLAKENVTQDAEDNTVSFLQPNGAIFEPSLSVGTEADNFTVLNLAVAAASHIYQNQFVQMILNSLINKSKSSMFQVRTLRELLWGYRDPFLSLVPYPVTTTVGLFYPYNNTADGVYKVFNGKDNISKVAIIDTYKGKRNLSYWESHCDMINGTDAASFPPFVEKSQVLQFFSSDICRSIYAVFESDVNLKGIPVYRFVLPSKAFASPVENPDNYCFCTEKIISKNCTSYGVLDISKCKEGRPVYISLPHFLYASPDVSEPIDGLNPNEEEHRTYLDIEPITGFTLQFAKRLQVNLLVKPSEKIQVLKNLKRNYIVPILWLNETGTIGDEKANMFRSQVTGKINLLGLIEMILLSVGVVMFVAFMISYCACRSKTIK

No constants are given. Whether binding was seen depends on the method and setting. Binding seen in cells or lysates may run through a third protein. Some binding calls cover weakened binding; strength is not graded here.

For the substance “HaloTag-fused WT CD36 (Halo-CD36^WT) (from UniProt P16671 1-472) (receptor)”, the binding result in test [1] and in test [2] was “binds” in each case.

The record behind these values is publication PMC13496012.
